Measurements reported in PubChem BioAssay AID504744 (Drosophila RNAi Screening Center, 2011)

- Screen: 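Find genes whose loss alters insulin-driven dAkt phosphorylation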 (primary screen)
- System: Drosophila Kc167 cells
- Reagent: long dsRNA against Drosophila genes, 250 ng dsRNA per well of a 384-well plate
- Timing: 3 days of knock-down, then overnight serum-free starvation before stimulation
- Treatment: bovine insulin at 387 nM for 10 minutes after 12 h without serum
- Detection: 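In-cell antibody fluorescence for phospho-dAkt in each well over DNA-dye signal, with log2 residuals expressed as z-scores adjusted for cell count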
- Hit rule: 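Under insulin, a gene counts as a hit if the average z-score of two replicates lies above 2.5 or below -2.5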
In all, the deposit lists about 23,000 reagents; below is an unselected part of those that have a named target and a result. Over the whole deposit, 98 (0.43%) got an active call. 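Only hit calls are given; the phospho-dAkt signals, z-scores and hit direction were not deposited.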 A plus sign joins genes that one reagent is predicted to hit.

| target gene | amplicon | activity call |
| --- | --- | --- |
| CG13449 | DRSC09996 | inactive |
| Or63a (Odorant receptor 63a) | DRSC08681 | inactive |
| mRpS35 (mitochondrial ribosomal protein S35) | DRSC08551 | inactive |
| UbcE2M (NEDD8-conjugating enzyme UbcE2M) | DRSC10828 | inactive |
| CG16825 | DRSC02526 | inactive |
| Marcal1 | DRSC02718 | inactive |
| CG9743 | DRSC16552 | inactive |
| PGAP2 (Post-GPI attachment to proteins 2) | DRSC00632 | inactive |
| alphaTub84D (alpha-Tubulin at 84D) | DRSC12623 | inactive |
| RNF220 (ring finger protein 220) | DRSC15652 | inactive |
| nudE | DRSC09000 | inactive |
| nudE | DRSC10962 | inactive |
| CG18302 | DRSC02663 | inactive |
| dpr10 (defective proboscis extension response 10) | DRSC09015 | inactive |
| dpr10 (defective proboscis extension response 10) | DRSC09018 | inactive |
| dpr10 (defective proboscis extension response 10) | DRSC10159 | inactive |
| dpr10 (defective proboscis extension response 10) | DRSC10160 | inactive |
| IntS12 (Integrator 12) | DRSC15818 | inactive |
| SIFaR (SIFamide receptor) | DRSC13467 | inactive |
| SIFaR (SIFamide receptor) | DRSC14266 | inactive |
| FASN3 (Fatty acid synthase 3) | DRSC20882 | inactive |
| Neurochondrin | DRSC12580 | inactive |
| Cyp28c1 (Cytochrome P450 28c1) | DRSC20236 | inactive |
| SiaT (Sialyltransferase) | DRSC04494 | inactive |
| Fic (Fic domain-containing protein) | DRSC03247 | inactive |
| CG32643 | DRSC18962 | inactive |
| ear (ENL/AF9-related) | DRSC15675 | inactive |
| toe (twin of eyg) | DRSC09174 | inactive |
| toe (twin of eyg) | DRSC09783 | inactive |
| Ets65A (Ets at 65A) | DRSC09968 | inactive |
| Ets65A (Ets at 65A) | DRSC10738 | inactive |
| Ets65A (Ets at 65A) | DRSC11164 | inactive |
| CG18281 | DRSC11742 | inactive |
| Lectin-galC1 (Galactose-specific C-type lectin) | DRSC03362 | inactive |
| Nin (Ninein) | DRSC02007 | inactive |
| lds (lodestar) | DRSC16988 | inactive |
| Dgk (Diacyl glycerol kinase) | DRSC05064 | inactive |
| Dgk (Diacyl glycerol kinase) | DRSC05065 | inactive |
| Dgk (Diacyl glycerol kinase) | DRSC06171 | inactive |
| Dgk (Diacyl glycerol kinase) | DRSC06782 | inactive |
| Dgk (Diacyl glycerol kinase) | DRSC22236 | inactive |
| CG32023 | DRSC08946 | inactive |
| dpr7 (defective proboscis extension response 7) | DRSC17109 | inactive |
| Balat (Beta-alanine transporter) | DRSC06852 | inactive |
| Prosbeta7 (Proteasome beta7 subunit) | DRSC12186 | inactive |
| mam (mastermind) | DRSC05468 | inactive |
| mam (mastermind) | DRSC07648 | inactive |
| Hipk (Homeodomain interacting protein kinase) | DRSC07885 | inactive |
| Hipk (Homeodomain interacting protein kinase) | DRSC08507 | inactive |
| dyl (dusky-like) | DRSC08466 | inactive |
| dyl (dusky-like) | DRSC08467 | inactive |
| Or47b (Odorant receptor 47b) | DRSC07492 | inactive |
| CG17110 | DRSC15173 | inactive |
| Osi1 (Osiris 1) | DRSC12271 | inactive |
| CG33322 | DRSC03204 | inactive |
| CG14237 | DRSC14731 | inactive |
| ppk22 (pickpocket 22) | DRSC22093 | inactive |
| Ptx1 | DRSC16804 | inactive |
| CG32687 | DRSC18210 | inactive |
| CG32687 | DRSC18237 | inactive |
| CG8726 | DRSC07250 | inactive |
| eIF3f2 (eukaryotic translation initiation factor 3 subunit f2) | DRSC04903 | inactive |
| CG30172 | DRSC21519 | inactive |
| CG33757 | DRSC05159 | inactive |
| Cpr56F (Cuticular protein 56F) | DRSC07326 | inactive |
| odd (odd skipped) | DRSC00832 | inactive |
| Tb (Tubby) | DRSC15815 | inactive |
| Brf (Brf RNA polymerase III subunit) | DRSC13228 | inactive |
| Brf (Brf RNA polymerase III subunit) | DRSC14166 | inactive |
| Brf (Brf RNA polymerase III subunit) | DRSC14167 | inactive |
| ais (aramis) | DRSC10523 | inactive |
| CG33307 | DRSC01349 | inactive |
| MsrA (Methionine sulfoxide reductase A) | DRSC11159 | inactive |
| Tsp66A + CG42661 + CG42660 | DRSC10233 | inactive |
| NFAT (NFAT nuclear factor) | DRSC18991 | inactive |
| NFAT (NFAT nuclear factor) | DRSC19393 | inactive |
| CG31635 | DRSC02273 | inactive |
| CG31635 | DRSC02274 | inactive |
| nrm (neuromusculin) | DRSC11597 | inactive |
| nrm (neuromusculin) | DRSC11599 | inactive |
| nrm (neuromusculin) | DRSC11897 | inactive |
| CG5909 | DRSC15914 | inactive |
| CG3557 | DRSC00614 | inactive |
| Polr3F (RNA polymerase III subunit F) | DRSC15785 | inactive |
| Ir7e (Ionotropic receptor 7e) | DRSC18011 | inactive |
| CG18371 | DRSC06733 | inactive |
| CG14546 | DRSC14890 | inactive |
| CG32432 | DRSC11703 | inactive |
| CG32432 | DRSC11704 | inactive |
| CG32432 | DRSC11744 | inactive |
| CG34038 | DRSC04039 | inactive |
| LManIII (Lysosomal alpha-mannosidase III) | DRSC03221 | inactive |
| CG13640 | DRSC14639 | inactive |
| Rac1 | DRSC08688 | inactive |
| Alp12 (Alkaline phosphatase 12) | DRSC02515 | inactive |
| ths (thisbe) | DRSC06153 | inactive |
| CG12360 (retired record) | DRSC14505 | inactive |
| CaBP1 (calcium-binding protein 1) | DRSC01984 | inactive |
| Elp6 (Elongator complex protein 6) | DRSC16571 | inactive |
| simj (simjang) | DRSC10942 | inactive |
| Mtch | DRSC08679 | inactive |
| CG31460 | DRSC14370 | inactive |
| CG31680 | DRSC21878 | inactive |
| CG6059 | DRSC15958 | inactive |
| Pxd (Peroxidase) | DRSC16805 | inactive |
| Hmg-2 (High mobility group protein 2) | DRSC04554 | inactive |
| COX4 (Cytochrome c oxidase subunit 4) | DRSC02091 | inactive |
| CG11052 | DRSC14288 | inactive |
| CG10214 | DRSC14213 | inactive |
| CG32032 | DRSC08961 | inactive |
| su(Hw) (suppressor of Hairy wing) | DRSC17074 | inactive |
| Pig1 (Pre-intermoult gene 1) | DRSC18698 | inactive |
| CG17780 | DRSC15265 | inactive |
| sd (scalloped) | DRSC20370 | inactive |
| sd (scalloped) | DRSC21712 | inactive |
| CG5989 | DRSC10565 | inactive |
| CG33490 | DRSC10587 | inactive |
| CG17364 | DRSC10269 | inactive |
| CG17364 | DRSC10270 | inactive |
| CG17364 | DRSC22689 | inactive |
| CG13908 (retired record) | DRSC08378 | inactive |
| dgt6 (dim gamma-tubulin 6) | DRSC14424 | inactive |
| ldbr (lariat debranching enzyme) | DRSC10933 | inactive |
| Cyp6u1 (Cytochrome P450 6u1) | DRSC05015 | inactive |
| CG6178 | DRSC15984 | inactive |
| SKIP (Shal K[+] channel interacting protein) | DRSC14713 | inactive |
| SKIP (Shal K[+] channel interacting protein) | DRSC14714 | inactive |
| SKIP (Shal K[+] channel interacting protein) | DRSC15864 | inactive |
| SKIP (Shal K[+] channel interacting protein) | DRSC16195 | inactive |
| SKIP (Shal K[+] channel interacting protein) | DRSC16196 | inactive |
| l(2)10685 (lethal (2) 10685) | DRSC00665 | inactive |
| polybromo | DRSC14307 | inactive |
| CG18294 | DRSC09891 | inactive |
| Fbxl7 (F-box and leucine-rich repeat protein 7) | DRSC15553 | inactive |
| Tim17a1 | DRSC14184 | inactive |
| CG13720 | DRSC08329 | inactive |
| CG12091 | DRSC08251 | inactive |
| CG7778 | DRSC03067 | inactive |
| CSN1b (COP9 signalosome subunit 1b) | DRSC11108 | inactive |
| wol (wollknaeuel) | DRSC03077 | inactive |
| AOX1 (Aldehyde oxidase 1) | DRSC15339 | inactive |
| CG4619 | DRSC02764 | inactive |
| ari-2 (ariadne 2) | DRSC04672 | inactive |
| Muc55B (Mucin 55B) | DRSC21440 | inactive |
| Zmynd10 (Zinc finger MYND-type containing 10) | DRSC09826 | inactive |
| CG14230 | DRSC19586 | inactive |
| CG4613 | DRSC10435 | inactive |
| mora (morgana) | DRSC16594 | inactive |
| Cbp20 (cap binding protein 20) | DRSC16601 | inactive |
| Dref (DNA replication-related element factor) | DRSC03319 | inactive |
| Gfrl (Glial cell line-derived neurotrophic family receptor-like) | DRSC15197 | inactive |
| Gfrl (Glial cell line-derived neurotrophic family receptor-like) | DRSC15199 | inactive |
| Gfrl (Glial cell line-derived neurotrophic family receptor-like) | DRSC15565 | inactive |
| Gfrl (Glial cell line-derived neurotrophic family receptor-like) | DRSC15719 | inactive |
| CG13248 | DRSC11696 | inactive |
| CG3868 | DRSC10380 | inactive |
| Klp61F (Kinesin-like protein at 61F) | DRSC08671 | inactive |

Already shown: 8 of the entries above.
| target gene | amplicon | activity call |
| --- | --- | --- |
| toe (twin of eyg) | DRSC09174 | inactive |
| toe (twin of eyg) | DRSC09783 | inactive |
| Ets65A (Ets at 65A) | DRSC09968 | inactive |
| Ets65A (Ets at 65A) | DRSC10738 | inactive |
| Ets65A (Ets at 65A) | DRSC11164 | inactive |
| CG18281 | DRSC11742 | inactive |
| Lectin-galC1 (Galactose-specific C-type lectin) | DRSC03362 | inactive |
| Nin (Ninein) | DRSC02007 | inactive |
